# In PMC12109719:
# For at least one entry, the source does not settle the construct or the ends of the probe. The direction of at least one scale is not stated here.
# Target: CA125 (carbohydrate antigen 125) (UniProt Q8WXI7)
# Assay: imaging weak measurement, direct (no antibody)
# Settings: CA125 100 U/mL (8th of 9 listed points); 5'-NH2; PBS+ (10 mM PBS, 5 mM MgCl2) as reference channel; aptamer 2 uM immobilized on polydopamine-coated prism, 2% blocking solution; readout at 55 min; commercial protein; single-stranded DNA
sequence,measurement,value
CTCACTACTATAGGGATAGGGAGACAAGAATAAACGCTCAA [CA125-1 aptamer],binding signal,194 a.u.
